Test results published in article PMC7862563.
These are yes or no findings as the source states them, for the method shown. In cells and extracts the contact can be indirect. These calls come from enrichment with a bait or labelling near it, and not all partners need be listed. Where a sequence is shown, tags or fusion partners need not be part of it.

Target: T1, FLAG-RNF180 (RING finger protein 180) (UniProt Q86T96)
T1 sequence: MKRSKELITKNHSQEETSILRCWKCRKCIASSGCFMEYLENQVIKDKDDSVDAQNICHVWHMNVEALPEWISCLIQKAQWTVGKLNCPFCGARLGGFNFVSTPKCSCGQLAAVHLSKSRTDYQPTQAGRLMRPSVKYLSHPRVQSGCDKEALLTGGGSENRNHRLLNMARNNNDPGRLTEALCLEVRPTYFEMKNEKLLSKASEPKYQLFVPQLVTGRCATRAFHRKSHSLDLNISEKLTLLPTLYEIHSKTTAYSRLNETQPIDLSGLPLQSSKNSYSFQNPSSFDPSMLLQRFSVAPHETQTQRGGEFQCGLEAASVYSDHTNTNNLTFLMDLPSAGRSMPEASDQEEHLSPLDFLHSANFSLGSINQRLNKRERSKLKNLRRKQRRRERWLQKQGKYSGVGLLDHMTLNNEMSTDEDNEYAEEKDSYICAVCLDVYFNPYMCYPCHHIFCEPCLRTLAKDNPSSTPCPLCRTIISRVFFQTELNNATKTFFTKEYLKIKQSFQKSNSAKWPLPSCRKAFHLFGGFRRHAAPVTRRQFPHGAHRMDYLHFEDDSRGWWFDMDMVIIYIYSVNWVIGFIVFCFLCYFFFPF
Test: affinity purification with mass spectrometry; lysate of 293T cells stably expressing FLAG-RNF180 (RIPA: 20 mM Tris pH7.5, 150 mM NaCl, 1% Triton X-100) on anti-FLAG magnetic beads overnight at 4°C; eluted with FLAG peptide, SDS-PAGE, Coomassie, LC/MS

binding: binds
B1: WNT1 inducible signaling pathway protein 1 (WISP1) (protein, UniProt O95388 23-367)
chain: TALSPAPTTMDFTPAPLEDTSSRPQFCKWPCECPPSPPRCPLGVSLITDGCECCKMCAQQLGDNCTEAAICDPHRGLYCDYSGDRPRYAIGVCAQVVGVGCVLDGVRYNNGQSFQPNCKYNCTCIDGAVGCTPLCLRVRPPRLWCPHPRRVSIPGHCCEQWVCEDDAKRPRKTAPRDTGAFDAVGEVEAWHRNCIAYTSPWSPCSTSCGLGVSTRISNVNAQCWPEQESRLCNLRPCDVDIHTLIKAGKKCLAVYQPEASMNFTLAGCISTRSYQPKYCGVCMDNRCCIPYKSKTIDVSFQCPDGLGFSRQVLWINACFCNLSCRNPNDIFADLESYPDFSEIAN
